Experimental data from patent US20110319594 (published 2011).
*: point of attachment. Fmoc = O=C(OCC1c2ccccc2-c2ccccc21)*

Assay: solution-phase peptide synthesis; HOBt/DIC or TBTU/NMM; pentafluorophenol for Arg
Details: whole synthesis, HPLC

## Fmoc-GGGG-OH
  final purity (method not given): 98.54%
